Reference: doi:10.1101/341834
No constants are given. Whether binding was seen depends on the method and setting. For some assays here: Binding calls can cover weak binding; strength is not graded here. Blank lines part the entries; values can stand above or below the molecule they belong to.

By UniProt entry, the sequences of proteins in these tests, tags left out.
UniProt P93002: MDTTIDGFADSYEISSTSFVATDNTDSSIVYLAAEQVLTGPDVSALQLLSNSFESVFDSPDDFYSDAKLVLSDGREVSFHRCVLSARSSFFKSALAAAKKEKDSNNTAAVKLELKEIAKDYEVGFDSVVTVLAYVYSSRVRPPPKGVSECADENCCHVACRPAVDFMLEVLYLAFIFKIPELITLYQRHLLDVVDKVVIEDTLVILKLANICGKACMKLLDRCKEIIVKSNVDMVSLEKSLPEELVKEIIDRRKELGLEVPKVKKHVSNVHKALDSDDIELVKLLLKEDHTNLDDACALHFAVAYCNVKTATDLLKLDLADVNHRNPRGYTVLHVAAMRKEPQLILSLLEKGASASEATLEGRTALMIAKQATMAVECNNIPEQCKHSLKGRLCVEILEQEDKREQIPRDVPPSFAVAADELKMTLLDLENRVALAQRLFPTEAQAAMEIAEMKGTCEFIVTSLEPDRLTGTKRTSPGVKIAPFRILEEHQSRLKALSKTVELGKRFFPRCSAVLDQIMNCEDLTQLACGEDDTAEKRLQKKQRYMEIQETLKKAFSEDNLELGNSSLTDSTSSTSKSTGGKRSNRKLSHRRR

What was measured:
GBD–AtNPR1 (Arabidopsis) = GBD–AtNPR1 (Arabidopsis) (UniProt P93002); test: two-hybrid
[1] = molecular target: GBD–NtNPR1 (tobacco (N. tabacum)) (UniProt Q8LL13); test: two-hybrid
[2] = molecular target: GBD–NtNPR1 (tobacco (N. tabacum)) (UniProt Q8LL13); test: yeast three-hybrid
[3] = molecular target: NtNPR1(386-525) (tobacco (N. tabacum)); test: two-hybrid
[4] = molecular target: GBD–NtTGA2.2 (tobacco (N. tabacum)) (UniProt Q9SQK1); test: two-hybrid
[5] = molecular target: NtNPR1(1-465) (tobacco (N. tabacum)); test: two-hybrid
[6] = molecular target: GBD–NtNPR1 (tobacco (N. tabacum)) (UniProt Q8LL13); test: two-hybrid; remark: listed apart in the source
[7] = molecular target: GBD–TGA7Δ1 (tobacco (N. tabacum)); test: two-hybrid
[8] = molecular target: GBD–NtTGA1aΔ1 (tobacco (N. tabacum)); test: two-hybrid

binding (GBD–AtNPR1 (Arabidopsis)): binds
binding [1]: binds weakly
Molecule: GAD–NtTGA2.2 (from UniProt Q9SQK1)

binding [2]: binds
Molecule: NtNIMIN2c expressed from the MET25 promoter (from UniProt A0FJY4)

binding [2]: binds
Molecule: NtNIMIN2a expressed from the MET25 promoter (from UniProt O82448)

binding [3]: no binding
binding [4]: binds
binding [5]: binds
binding [6]: binds weakly
binding [7]: binds
binding [8]: binds
B1: GAD–NtTGA2.1 (protein, UniProt O24160 1-456)
chain: MASKIGTAGNRSGTTGMPSFISQIPVSNPMGTEANNTNTSRMSDFGVLEQYLGFRIGDGANVNRSPLFNSTSATNPAVGFEVSGTINRTLAPSNTSLPTATPRSQTMLLQSNLVSASGTHHENWGESNMADSGSRTDTSTDMDGDDKNQLIEAGQSSDKSKEKVLDQKTLRRLAQNREAARKSRLRKKAYVQQLENSRLKLSQLEQDLQRARQQGKYISNIADQSNGVGANGPLAFDAEYSRWLEEHNKHINELRTAVNAHASDPELRSIVNNVTAHFDEVFRVKGNAAKADVFHVLSGMWKTPAERCFMWIGGFRPSELLKLLVNQLEPLTEQQLAGIYNLQQSSHQAEDALSQGMEALQQSLAETLANGSPAPEGSSGDVANYMGQMAMAMGKLGTLEGFLRQADNLRQQTLQQMHRVLTTRQSARALLAINEYFSRLRALSSLWLARPREQLV

binding [7]: binds
binding [8]: binds
B2: GAD–NtTGA1a (protein, UniProt P14232 1-359)
chain: MGICDPIHQLGMWDDFNSSFPSTSATMILEVDKCLEDQIPIMEKRLDNETEDTSHGTVGTSNRYEPETSKPVEKVLRRLAQNREAARKSRLRKKAYVQQLENSKLKLIQLEQELERARKQGMCVGGGVDASQLSYSGTASSGTAVFDMEYGHWVEEQTRQTNDLRIALHSQIGEAELRIIVDGYLNHYFDLFRMKATAAKADVLYIMSGMWKTSAERFFMWIGGFRPSELLKVLTPHLELLTEQQLREVCNLTQSCQQAEDALSQGMVKLHQILAEAVAAGRLGEGNYTLPQMGPAIEKLEDLVRFVNQADHLRQETLQQMSRILNTCQAAQGLLALGEYFERLRVLSSQWATRLREPT

binding [7]: binds
B3: AtGRXC9 (protein, UniProt Q9SGP6 1-137)
chain: MQGTISCARNYNMTTTVGESLRPLSLKTQGNGERVRMVVEENAVIVIGRRGCCMCHVVRRLLLGLGVNPAVLEIDEEREDEVLSELENIGVQGGGGTVKLPAVYVGGRLFGGLDRVMATHISGELVPILKEVGALWL

binding [7]: binds
B4: AtGRXC6 (protein, UniProt Q8L9S3 1-144)
chain: MMQELGLQRFSNDVVRLDLTPPSQTSSTSLSIDEEESTEAKIRRLISEHPVIIFSRSSCCMCHVMKRLLATIGVIPTVIELDDHEVSSLPTALQDEYSGGVSVVGPPPAVFIGRECVGGLESLVALHLSGQLVPKLVQVGALWV
